Results as given in the supplement of paper PMC6078165.
The reference is the same well before dosing, and untreated signal decays as well.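 Labels refer to human fibroblasts, largely primary: uterine (C12385, HUF), lung (H6013), bone (Hs27A), adrenal (HADF), skin (WS1), plus mammary HMF and breast cancer-associated Hs343T. Cancer lines are basal-like or mesenchymal-like triple-negative breast cancer. The paper counts as hits responses shifting over 3x the replicate standard deviation. The tissue of the other fibroblasts is not given here.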

Tested on: MDAMB436
Assay: relative JC-1 red fluorescence (viability) vs pre-drug, coculture with fibroblast (fraction); higher = more viable cancer cells
Details: 0.1 µM
Procedure: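 JC-1 labelled TNBC cells cocultured 1:1 (1,500 cells each) with CellTrace Violet stained primary or stromal fibroblasts in 384-well plates in FluoroBrite medium, treated with one of 42 anticancer drugs at 0.1, 1, 10 or 100 uM. JC-1 red fluorescence (mitochondrial integrity in cancer cells only) was read by plate reader every 8 h for 72 h. Values are normalised to each well's pre-drug value. The stock of one drug was tenfold lower, so its dose labels may be too high.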

CC(C)C[C@H](NC(=O)[C@H](Cc1ccccc1)NC(=O)c1cnccn1)B(O)O [Bortezomib]
relative JC-1 red fluorescence
Details | 8 h | 16 h | 24 h | 32 h | 40 h | 48 h | 56 h | 64 h | 72 h
coculture fibroblast: C12385 | 0.827 | 0.8087 | 0.8445 | 0.806 | 0.805 | 0.834 | 0.8726 | 0.911 | 0.9498
coculture fibroblast: H6013 | 0.871 | 0.889 | 0.934 | 0.815 | 0.848 | 0.844 | 0.798 | 0.858 | 0.781
coculture fibroblast: H6019 | 0.776 | 0.735 | 0.764 | 0.755 | 0.781 | 0.841 | 0.892 | 0.8557 | 0.847
coculture fibroblast: H6076 | 0.76 | 0.735 | 0.78 | 0.793 | 0.887 | 0.942 | 0.822 | 0.816 | 0.877
coculture fibroblast: H6231 | 0.7539 | 0.747 | 0.851 | 0.803 | 0.862 | 0.728 | 0.776 | 0.795 | 0.858
coculture fibroblast: HADF | 0.814 | 0.794 | 0.787 | 0.768 | 0.778 | 0.832 | 0.792 | 0.807 | 0.796
coculture fibroblast: HCFa | 0.823 | 0.811 | 0.831 | 0.842 | 0.769 | 0.826 | 0.885 | 0.82 | 0.8378
coculture fibroblast: HCPF | 0.7447 | 0.7438 | 0.808 | 0.7913 | 0.849 | 0.864 | 0.929 | 0.95 | 0.865
coculture fibroblast: HHSteC | 0.84 | 0.858 | 0.871 | 0.859 | 0.905 | 0.792 | 0.817 | 0.825 | 0.844
coculture fibroblast: HMF | 0.7423 | 0.732 | 0.7661 | 0.7506 | 0.815 | 0.833 | 0.838 | 0.8 | 0.913
coculture fibroblast: HPFa | 0.8931 | 0.917 | 0.924 | 0.933 | 0.98879 | 0.878 | 0.841 | 0.796 | 0.842
coculture fibroblast: HUF | 0.8547 | 0.7907 | 0.7861 | 0.735 | 0.718 | 0.74 | 0.751 | 0.771 | 0.784
coculture fibroblast: Hs5 | 0.752 | 0.764 | 0.81 | 0.797 | 0.858 | 0.866 | 0.803 | 0.885 | 0.936
coculture fibroblast: Hs27A | 0.809 | 0.803 | 0.84 | 0.882 | 0.924 | 0.8 | 0.931 | 0.847 | 0.913
coculture fibroblast: Hs343T | 0.754 | 0.735 | 0.767 | 0.751 | 0.801 | 0.826 | 0.902 | 0.86 | 0.891
coculture fibroblast: WS1 | 0.803 | 0.749 | 0.767 | 0.712 | 0.72 | 0.745 | 0.785 | 0.822 | 0.857
